Data reported in the supplement of paper PMC8728848.
The list shows a part of the results.

What was measured:
Assay in all cases: glycan array binding signal (z-score within array); higher = stronger binding
Conditions in all cases: glycan notation: IUPAC condensed, linker removed
[1] = target: Gal(b1-3)GlcNAc(b1-2)Man(a1-3)[Gal(b1-3)GlcNAc(b1-2)Man(a1-6)]Man(b1-4)GlcNAc(b1-4)[Fuc(a1-6)]GlcNAc
How it was run: (§1)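 The Consortium for Functional Glycomics database supplied 3228 glycan arrays, of which those lacking an available protein sequence were dropped. The binding signal, a within-array Z-score, was averaged across arrays of the same protein sequence and across linkers. Negative scores can be read as non-binding.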

[2] = target: Gal(b1-3)GlcNAc(b1-2)Man(a1-3)[GlcNAc(b1-4)][Gal(b1-3)GlcNAc(b1-2)Man(a1-6)]Man(b1-4)GlcNAc(b1-4)GlcNAc
How it was run: as §1

[3] = target: Gal(b1-3)GlcNAc(b1-2)[Gal(b1-3)GlcNAc(b1-6)]Man(a1-6)[Gal(b1-3)GlcNAc(b1-2)Man(a1-3)]Man(b1-4)GlcNAc(b1-4)GlcNAc
How it was run: as §1

[4] = target: Gal(b1-3)GlcNAc(b1-3)Gal(b1-3)GlcNAc
How it was run: as §1

[5] = target: Gal(b1-3)GlcNAc(b1-3)Gal(b1-4)Glc
How it was run: as §1

[6] = target: Gal(b1-3)GlcNAc(b1-3)Gal(b1-4)GlcNAc
How it was run: as §1

[7] = target: Gal(b1-3)GlcNAc(b1-3)Gal(b1-4)GlcNAc(b1-2)Man(a1-3)[Gal(b1-3)GlcNAc(b1-3)Gal(b1-4)GlcNAc(b1-2)Man(a1-6)]Man(b1-4)GlcNAc(b1-4)GlcNAc
How it was run: as §1

[8] = target: Gal(b1-3)GlcNAc(b1-3)Gal(b1-4)GlcNAc(b1-2)[Gal(b1-3)GlcNAc(b1-3)Gal(b1-4)GlcNAc(b1-6)]Man(a1-6)[Gal(b1-3)GlcNAc(b1-3)Gal(b1-4)GlcNAc(b1-2)Man(a1-3)]Man(b1-4)GlcNAc(b1-4)[Fuc(a1-6)]GlcNAc
How it was run: as §1

[9] = target: Gal(b1-3)GlcNAc(b1-3)Gal(b1-4)GlcNAc(b1-3)Gal(b1-4)GlcNAc(b1-2)[Gal(b1-3)GlcNAc(b1-3)Gal(b1-4)GlcNAc(b1-3)Gal(b1-4)GlcNAc(b1-6)]Man(a1-6)[Gal(b1-3)GlcNAc(b1-3)Gal(b1-4)GlcNAc(b1-3)Gal(b1-4)GlcNAc(b1-2)Man(a1-3)]Man(b1-4)GlcNAc(b1-4)[Fuc(a1-6)]GlcNAc
How it was run: as §1

[10] = target: Gal(b1-3)GlcNAc(b1-3)Gal(b1-4)GlcNAc(b1-6)[Gal(b1-3)GlcNAc(b1-3)]Gal(b1-4)Glc
How it was run: as §1

[11] = target: Gal(b1-3)GlcNAc(b1-3)Gal(b1-4)[Fuc(a1-3)]GlcNAc
How it was run: as §1

[12] = target: Gal(b1-3)GlcNAc(b1-3)Gal(b1-4)[Fuc(a1-3)]GlcNAc(b1-6)[Gal(b1-3)GlcNAc(b1-3)]Gal(b1-4)Glc
How it was run: as §1

[13] = target: Gal(b1-3)GlcNAc(b1-3)GalNAc
How it was run: as §1

[14] = target: Gal(b1-3)GlcNAc(b1-6)Gal(b1-4)GlcNAc
How it was run: as §1

[15] = target: Gal(b1-3)GlcNAc(b1-6)GalNAc
How it was run: as §1

[16] = target: Gal(b1-3)GlcNAc(b1-6)[Gal(b1-3)]GalNAc
How it was run: as §1

Gal(b1-3)GlcNAc6S = target: Gal(b1-3)GlcNAc6S
How it was run: as §1

[17] = target: Gal(b1-3)[Fuc(a1-4)]GlcNAc
How it was run: as §1

[18] = target: Gal(b1-3)[Fuc(a1-4)]GlcNAc(b1-2)Man
How it was run: as §1

[19] = target: Gal(b1-3)[Fuc(a1-4)]GlcNAc(b1-2)Man(a1-3)[Gal(b1-3)[Fuc(a1-4)]GlcNAc(b1-2)Man(a1-6)]Man(b1-4)GlcNAc(b1-4)[Fuc(a1-6)]GlcNAc
How it was run: as §1

[20] = target: Gal(b1-3)[Fuc(a1-4)]GlcNAc(b1-3)Gal(b1-3)[Fuc(a1-4)]GlcNAc
How it was run: as §1

[21] = target: Gal(b1-3)[Fuc(a1-4)]GlcNAc(b1-3)Gal(b1-4)[Fuc(a1-3)]GlcNAc
How it was run: as §1

[22] = target: Gal(b1-3)[Fuc(a1-4)]GlcNAc(b1-6)GalNAc
How it was run: as §1

[23] = target: Gal(b1-3)[GlcNAc(b1-6)]GalNAc
How it was run: as §1

[24] = target: Gal(b1-3)[Neu5Ac(a2-6)]GalNAc
How it was run: as §1

[25] = target: Gal(b1-3)[Neu5Ac(a2-6)]GlcNAc(b1-4)Gal(b1-4)Glc
How it was run: as §1

[26] = target: Gal(b1-3)[Neu5Ac(b2-6)]GalNAc
How it was run: as §1

Gal(b1-4)Gal = target: Gal(b1-4)Gal
How it was run: as §1

[27] = target: Gal(b1-4)GalNAc(a1-3)[Fuc(a1-2)]Gal(b1-4)GlcNAc
How it was run: as §1

[28] = target: Gal(b1-4)GalNAc(b1-3)[Fuc(a1-2)]Gal(b1-4)GlcNAc
How it was run: as §1

Gal(b1-4)Glc = target: Gal(b1-4)Glc
How it was run: as §1

Gal(b1-4)Glc6S = target: Gal(b1-4)Glc6S
How it was run: as §1

Gal(b1-4)GlcNAc = target: Gal(b1-4)GlcNAc
How it was run: as §1

[29] = target: Gal(b1-4)GlcNAc(a1-6)Gal(b1-4)GlcNAc
How it was run: as §1

Gal(b1-4)GlcNAc(b1-2)Man = target: Gal(b1-4)GlcNAc(b1-2)Man
How it was run: as §1

[30] = target: Gal(b1-4)GlcNAc(b1-2)Man(a1-3)Man(b1-4)GlcNAc(b1-4)GlcNAc
How it was run: as §1

[31] = target: Gal(b1-4)GlcNAc(b1-2)Man(a1-3)[Gal(b1-4)GlcNAc(b1-2)Man(a1-6)]Man(b1-4)GlcNAc(b1-4)GlcNAc
How it was run: as §1

B1: PX9937I-bfa-538-26-538 (Bacteroides fragilis) (protein)
chain: DKLDLSPIDYYGSGSYWKTEAQATAYIDGIHKHLRDAAWQHTITFGELRGGRFITGASSDGMGVSNGDIILQNFDETHTGVSKFGDLFGRITNLNLFIARVTDATYLSDEMKNFYLGEVYGLRAFYYFDLYRIYGGVPLRLTADVVEGVIDPNKLYMARSTPKEVMTQIKSDLNKSMEYFGNMNDFDPYKRGKKVYWSKAATECLMGEVYLWTSKVTTGDDVANPADLTIAKTHLESVLNNYNLKMLDDFSQVFNAKNKANDEIIFAIRFLEGEATNSNGTFTYNVGTGSTKNRYQANGEVFGDALDIQNTGNQTYEYNKAVYQNFDDADTRKEATFIASYNKDGKTGELSLYGTHVRKNIGYVNAQGARVYCGDYIFYRLPWVYLTLAEIANMEGDNAAVAKYINLVRKRAYGNAWDETLYAYPETADFTTNELAILHEKDKEFIQEGQRWWDLRRMTLTKGGTPLVFCKEGSLLGDAPILNKSTEAHKLLWPIEKTMLNKDPALEQTPGYK
glycan array binding signal (z-score) [1]: 0.601 | glycan array binding signal (z-score) [2]: 1.19 | glycan array binding signal (z-score) [3]: -0.863 | glycan array binding signal (z-score) [4]: -0.01 | glycan array binding signal (z-score) [5]: 0.888 | glycan array binding signal (z-score) [6]: 0.512 | glycan array binding signal (z-score) [7]: -0.068 | glycan array binding signal (z-score) [8]: 1.49 | glycan array binding signal (z-score) [9]: 2.69 | glycan array binding signal (z-score) [10]: -0.639 | glycan array binding signal (z-score) [11]: -0.267 | glycan array binding signal (z-score) [12]: -0.436 | glycan array binding signal (z-score) [13]: -0.613 | glycan array binding signal (z-score) [14]: -0.135 | glycan array binding signal (z-score) [15]: 0.517 | glycan array binding signal (z-score) [16]: -0.215 | glycan array binding signal (z-score) (Gal(b1-3)GlcNAc6S): -0.639 | glycan array binding signal (z-score) [17]: -0.364 | glycan array binding signal (z-score) [18]: -0.717 | glycan array binding signal (z-score) [19]: 0.049 | glycan array binding signal (z-score) [20]: -0.766 | glycan array binding signal (z-score) [21]: -0.343 | glycan array binding signal (z-score) [22]: 2.39 | glycan array binding signal (z-score) [23]: -0.455 | glycan array binding signal (z-score) [24]: -0.632 | glycan array binding signal (z-score) [25]: -0.487 | glycan array binding signal (z-score) [26]: -0.133 | glycan array binding signal (z-score) (Gal(b1-4)Gal): 0.027 | glycan array binding signal (z-score) [27]: -0.705 | glycan array binding signal (z-score) [28]: 0.354 | glycan array binding signal (z-score) (Gal(b1-4)Glc): -0.375 | glycan array binding signal (z-score) (Gal(b1-4)Glc6S): 0.229 | glycan array binding signal (z-score) (Gal(b1-4)GlcNAc): -0.479 | glycan array binding signal (z-score) [29]: -0.725 | glycan array binding signal (z-score) (Gal(b1-4)GlcNAc(b1-2)Man): 1.74 | glycan array binding signal (z-score) [30]: -0.029 | glycan array binding signal (z-score) [31]: 2.38
